Laboratory results from PubChem BioAssay AID504847 (National Center for Advancing Translational Sciences (NCATS), 2011).
Screen size: about 400,000 compounds; about 3,700 (0.93%) were called active. The inconclusive results got no clear call from the source; some entries with a clear call stand among them for comparison. Calls follow the shape of the dose curve; as a rule, active = well fitted inhibition curve with a large enough effect; inconclusive = small, poorly fitted or top-dose-only effect, or another doubt; inactive = no such curve, though single readings can be large or run the other way. A potency beside an inconclusive call is a rough fit, not a confirmed value.

Amino acid sequences for entries named in this document (tags omitted). A change or cut given only in a name is not applied to a line headed by its entry.
UniProt P11473: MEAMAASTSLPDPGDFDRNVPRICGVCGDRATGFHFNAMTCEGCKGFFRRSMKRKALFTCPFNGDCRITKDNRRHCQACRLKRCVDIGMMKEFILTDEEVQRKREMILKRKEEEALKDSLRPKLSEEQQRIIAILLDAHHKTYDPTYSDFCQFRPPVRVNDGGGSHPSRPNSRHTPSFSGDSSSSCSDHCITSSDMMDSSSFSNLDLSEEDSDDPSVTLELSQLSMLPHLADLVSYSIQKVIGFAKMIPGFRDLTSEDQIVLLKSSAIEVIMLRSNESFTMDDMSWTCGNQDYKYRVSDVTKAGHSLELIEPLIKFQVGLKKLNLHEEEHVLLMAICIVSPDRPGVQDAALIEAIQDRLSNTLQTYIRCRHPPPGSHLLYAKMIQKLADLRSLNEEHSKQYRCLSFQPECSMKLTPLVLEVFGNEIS

Target: Vitamin D3 receptor (Homo sapiens) (UniProt P11473)
Experiment: Inhibitors of the vitamin D receptor (VDR): qHTS
Details: VDR-SRC2-3 peptide fluorescence polarization, 2 h; max response, negative = inhibition: active compounds read low
Outline: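 After 23 nl compound addition and a short centrifugation, plates sat for 2 hours at ambient temperature; polarization of fluorescence then indicated loss of VDR binding to peptide SRC2-3.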
% is scaled to controls: 0 for no effect and ±100 for the full control effect; potency is read from the fitted curve at half-maximal effect.

Potency, active:
O=S(=O)(/C(=C\c1ccc(C(F)(F)F)cc1)c1nc2ccccc2[nH]1)c1ccccc1 14.1 µM
CCOc1ccc(-n2c(C)cc(C(=O)CCl)c2C)cc1 50.1 µM
CN1CCc2c(sc(/N=C/c3cccs3)c2C(N)=O)C1 31.6 µM
COc1ccc(N=C2S/C(=C\c3ccc(OC(C)C(=O)O)c(OC)c3)C(=O)N2CCc2c[nH]c3ccccc23)cc1 (stereo unspecified) 39.8 µM
N#C/C(=C\c1c(Oc2ccc(Cl)cc2)nc2ccccn2c1=O)C(=O)NC1CCS(=O)(=O)C1 (stereo unspecified) 50.1 µM
CCOC(=O)/C=C1\CC(C(=O)OCC)Oc2c(OC)cccc21 (stereo unspecified) 79.4 µM

Pulled one by one from the list above, 2 records:
Potency, active:
COc1ccc(N=C2S/C(=C\c3ccc(OC(C)C(=O)O)c(OC)c3)C(=O)N2CCc2c[nH]c3ccccc23)cc1 (stereo unspecified) 39.8 µM
CCOC(=O)/C=C1\CC(C(=O)OCC)Oc2c(OC)cccc21 (stereo unspecified) 79.4 µM

Following part.

Potency, inconclusive:
Cc1ccc(C(=O)CNc2cc(C)ccc2C)cc1 70.8 µM [inhibitor, partial curve, poor fit]
[O-]/C(=C(\C(=S)NCc1ccc2c(c1)OCO2)[n+]1ccccc1)c1ccc(Cl)s1 28.2 µM [inhibitor, partial curve, poor fit]
CCOc1ccc(C(=O)CCC(=O)N2CCN(c3ccc(O)cc3)CC2)cc1 0.631 µM [inhibitor, full curve, poor fit]
COCC(=O)Oc1c(Sc2ccc(C)cc2)c(C)nn1C(C)(C)C 56.2 µM [inhibitor, partial curve]
Cc1cc(C)cc(Oc2nc3c(C)cccn3c(=O)c2/C=C(\C#N)c2nc3ccccc3[nH]2)c1 31.6 µM [inhibitor, partial curve, poor fit]
Cc1cc2oc(=O)cc(-c3ccccc3)c2c(C)c1-c1ccoc1 126 µM [inhibitor, single point]
Cc1nnc(N/N=C/c2cccc(OCc3ccc(Cl)c(Cl)c3)c2)n1N 70.8 µM [inhibitor, partial curve, poor fit]
N#Cc1cc(Oc2cccc3cccnc23)c(-n2nnc3ccccc32)cc1C#N 39.8 µM [inhibitor, full curve, poor fit]
CC(=O)c1sc(N/N=C\c2cccc(Br)c2)nc1C 50.1 µM [inhibitor, partial curve, poor fit]
Cc1cccc(NC(=O)CSc2nc3[nH]c(=O)cc(O)c3s2)c1 89.1 µM [inhibitor, single point]
Cc1c(N=NC2=C(O)CC(C)(C)CC2=O)c(=O)n(-c2ccccc2)n1C 56.2 µM [inhibitor, partial curve, poor fit]
CSc1ccc(C2CC(=O)Nc3c2c(=O)n(C)c(=O)n3C)cc1 (stereo unspecified) 39.8 µM [inhibitor, single point]
Cc1cc(C)c(NC(=O)CS)c(Cl)c1 39.8 µM [inhibitor, full curve]
CC(N)C(=O)NCC(=O)NC1CSSCC(C(=O)O)NC(=O)C(CO)NC(=O)C(C(C)O)NC(=O)C(Cc2ccccc2)NC(=O)C(C(C)O)NC(=O)C(CCCCN)NC(=O)C(Cc2c[nH]c3ccccc23)NC(=O)C(Cc2ccccc2)NC(=O)C(Cc2ccccc2)NC(=O)C(CC(N)=O)NC(=O)C(CCCCN)NC1=O (stereo unspecified) 39.8 µM [inhibitor, full curve]
O=C(CN(C(=O)c1csnn1)c1ccc(Br)cc1)NC1CCCC1 89.1 µM [inhibitor, single point]
O=C1/C(=C/c2cccnc2)Sc2ccccc21 50.1 µM [inhibitor, partial curve, poor fit]
Cc1ccc(C)c(S(=O)(=O)Nc2ccc(O)c(C(=O)O)c2)c1 79.4 µM [inhibitor, single point]
O=C(c1ccc(C(F)(F)F)cc1)C1CCCN(C(=O)c2cnccn2)C1 (stereo unspecified) 20 µM [inhibitor, full curve]
CCOc1ccc(NC(=O)NC(C)c2ccc3c(c2)OCO3)cc1 (stereo unspecified) 79.4 µM [inhibitor, partial curve, poor fit]
CCCCC(=O)N(Cc1ccc2c(c1)OCO2)Cc1nc2ccccc2c(=O)[nH]1 56.2 µM [inhibitor, partial curve, poor fit]
CCCCNC(=O)/C(C#N)=C/c1ccc(F)cc1F 79.4 µM [inhibitor, partial curve, poor fit]
CN(C)C(=O)c1ccc(-c2ccc3ncnc(N(C)Cc4ccco4)c3c2)cc1 39.8 µM [inhibitor, partial curve]
O=C(CS(=O)c1ccccc1[N+](=O)[O-])Oc1ccc(Br)cc1 (stereo unspecified) 22.4 µM [inhibitor, full curve]
NNC(=O)CNC(c1ccccc1)c1cc(Br)ccc1NC(=O)c1cccc(Cl)c1 (stereo unspecified) 100 µM [inhibitor, partial curve, poor fit]

Max response, negative = inhibition, inactive:
CN(c1cccc(NC(=O)CN(c2ccc(C34CC5CC(CC(C5)C3)C4)cc2)S(C)(=O)=O)c1)S(C)(=O)=O -10.6%
COc1cc(C(=O)NNC(=S)NC(=O)c2ccccc2C)cc(OC)c1OC -2.05%
CCCN(C(=O)CCl)C1=CCCCC1 -9.27%
COc1ccc(CC(=S)N2CCOCC2)cc1OC -9.8%
Cc1ccc(CN2CCC(CNc3ncnc4onc(-c5ccc(Cl)cc5)c34)CC2)cc1 12%
CCC(=O)NC(c1ccccc1)c1c(O)ccc2ccccc12 (stereo unspecified) -8.33%
O=C(COc1ncnc2ccccc12)c1ccc(Cl)cc1 -0.694%
CC(=O)c1ccc(N2CCN(C(=O)C3CCN(S(=O)(=O)c4cccc5nonc45)CC3)CC2)cc1 -6.21%
CCOC(=O)[C@H]1[C@H]2COc3ccc(C)cc3[C@@H]2N2C(=O)c3ccc(C)cc3NC(=O)[C@@]12C -7.53%
COc1ccc(-c2nc(CS(=O)CC(=O)NCCN3CCCCC3C)c(C)o2)cc1OC (stereo unspecified) -5.24%
O=C1Cc2ccccc2C(=O)N1c1ccccc1 -1.18%
